Screening data, single-dose tests

Measurements from “University of Dundee, Small-Polar-MMV Screening Library” (2021), ChEMBL document CHEMBL3988442.

Results are given as percent effect.
The record does not define 0% and 100%; most values in the screen are far below 50% and negative numbers occur (in some assays of this library far below -100).
The compounds are a random part of those screened.

Mtb cholesterol medium: 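Growth of Mycobacterium tuberculosis over 4 days (cholesterol / DPPC medium with tyloxapol); the read-out is not stated. Tested at 500 µM. Higher reads as more growth inhibition (inferred: compounds with an IC50 in retests scored well above the rest). Size under these conditions: about 18,000 compounds, about 900 of them at 50% or above in at least one test.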
Mtb glucose medium: 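Whole-cell growth test on Mycobacterium tuberculosis, read after 3 days in glucose-containing 7H9 medium; the read-out is not stated. Concentration: 500 µM. Higher reads as more growth inhibition (inferred: compounds with an IC50 in retests scored well above the rest). About 18,000 compounds were tested under these conditions; 7.9% (about 1,400) showed 50% or more at least once.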

For Cc1nnc(CNC(=O)CSc2ccncc2)o1 the result was Mtb cholesterol medium: -6.68%; Mtb glucose medium: -1.844%.
For NS(=O)(=O)N1CCN(Cc2cc3ccccc3s2)CC1 the result was Mtb cholesterol medium: 3.244%; Mtb glucose medium: 7.863%.
For CSCC(N)c1ccccc1 (centres undefined) the result was Mtb cholesterol medium: 7.867%; Mtb glucose medium: 36.41%.
For O=C(COC1CCCCC1)NCc1c[nH]nn1 the result was Mtb cholesterol medium: 3.49%; Mtb glucose medium: 2.399%.
For O=C(Oc1ccc(F)cc1)N1CCOCC1 the result was Mtb cholesterol medium: 25.34%; Mtb glucose medium: 20.45%.
For CC(C)(C)OC(=O)NCC1CC(N)C1 (centres undefined) the result was Mtb cholesterol medium: 10.25%; Mtb glucose medium: 25.03%.
For CC(C)(C)c1noc(CN2CCC(CO)CC2)n1 the result was Mtb cholesterol medium: 5.375%; Mtb glucose medium: 29.86%.
For COc1ccc(C(C)NCCO)c(Br)c1 (centres undefined) the result was Mtb cholesterol medium: -2.297%; Mtb glucose medium: 14.3%.
For NC1CCc2nccn2C1 (centres undefined) the result was Mtb cholesterol medium: 0.2623%; Mtb glucose medium: 2.42%.
For Cc1nnc(NC(=O)c2ccccc2O)s1 the result was Mtb cholesterol medium: 2.124%; Mtb glucose medium: 26.24%.
For CCC(CC)(CN)NS(=O)(=O)c1ccc(C(C)=O)cc1 the result was Mtb cholesterol medium: 15.58%; Mtb glucose medium: -3.381%.
For COCCNC(=O)CN1CCC(O)CC1 the result was Mtb cholesterol medium: -13.35%; Mtb glucose medium: -6.491%.
For CCNS(=O)(=O)C1CCN(c2ccc(C#N)nc2)C1 (centres undefined) the result was Mtb cholesterol medium: -2.229%; Mtb glucose medium: 15.24%.
For CC1=C(c2ccco2)CN(C(=O)c2ccncc2)CC1 the result was Mtb cholesterol medium: -38.34%; Mtb glucose medium: -15.3%.
For CN(CCNC(=O)Nc1cn[nH]c1)C1CCCCC1 the result was Mtb cholesterol medium: 4.17%; Mtb glucose medium: -0.2909%.
For Cc1ccc(CCN)cc1 the result was Mtb cholesterol medium: 10.49%; Mtb glucose medium: 23.26%.
For COCC(=O)N1CCCCCC1C1CCNCC1 (centres undefined) the result was Mtb cholesterol medium: 2.37%; Mtb glucose medium: 7.905%.
For CC(=O)N1CCC(C(=O)N(C)Cc2cscn2)CC1 the result was Mtb cholesterol medium: 3.451%; Mtb glucose medium: 1.342%.
For Cc1nc(C)c(CC(=O)NCC(C)C)c(=O)[nH]1 the result was Mtb cholesterol medium: -6.778%; Mtb glucose medium: -15.05%.
For COCCCNS(=O)(=O)c1cccc2cc(C)cnc12 the result was Mtb cholesterol medium: 39.71%; Mtb glucose medium: 42.24%.
For NCc1cnn(-c2ccc(Cl)cc2)c1 the result was Mtb cholesterol medium: 30.67%; Mtb glucose medium: 38.41%.
For CS(=O)(=O)N1CCC(Nc2ncc(Br)cn2)CC1 the result was Mtb cholesterol medium: 2.462%; Mtb glucose medium: -3.951%.
For CCC[C@H]1CN(C(=O)CCn2ccnc2CC)C[C@@H]1N the result was Mtb cholesterol medium: 10.17%; Mtb glucose medium: 12.48%.
For CCOc1ncccc1NC(=O)c1[nH]ncc1Br the result was Mtb cholesterol medium: -6.931%; Mtb glucose medium: -13.1%.
For Cn1ccnc1CN1CCN(Cc2nccn2C)CC1 the result was Mtb cholesterol medium: -4.257%; Mtb glucose medium: 2.893%.
For O=C(CC(F)(F)F)NC1CCN(CC2CC2)C1 (centres undefined) the result was Mtb cholesterol medium: -13.64%; Mtb glucose medium: 4.68%.
For CN(C)c1cc(CNC(=O)CC2C=CCC2)ccn1 (centres undefined) the result was Mtb cholesterol medium: 5.573%; Mtb glucose medium: 20.26%.
For CC(=O)NCC(=O)NCc1nc(-c2ccccc2)n[nH]1 the result was Mtb cholesterol medium: -5.912%; Mtb glucose medium: 5.616%.
For CCc1nc(CN2CCCC2C(=O)N(C)C)cs1 (centres undefined) the result was Mtb cholesterol medium: -17.65%; Mtb glucose medium: -6.676%.
For Cc1ccc(C(=O)NCCCS(C)(=O)=O)c(O)c1 the result was Mtb cholesterol medium: 1.672%; Mtb glucose medium: 26.46%.
For CC(C)OCCC(NC(=O)OC(C)(C)C)C(N)=O (centres undefined) the result was Mtb cholesterol medium: 1.418%; Mtb glucose medium: 6.503%.

The first 3 entries again:

With Cc1nnc(CNC(=O)CSc2ccncc2)o1 the screen gave Mtb cholesterol medium: -6.68%; Mtb glucose medium: -1.844%.
With NS(=O)(=O)N1CCN(Cc2cc3ccccc3s2)CC1 the screen gave Mtb cholesterol medium: 3.244%; Mtb glucose medium: 7.863%.
With CSCC(N)c1ccccc1 (centres undefined) the screen gave Mtb cholesterol medium: 7.867%; Mtb glucose medium: 36.41%.